Experimental data reported in US20200199567A1, “METHODS FOR SELECTION AND EXPANSION OF T CELLS EXPRESSING PD-1” (MEDIMMUNE, LLC, priority 2018, published 2020).

Tested on: PD-1 expressing T cells
Test: Magnetic bead enrichment (selection) of PD-1 expressing T cells with biotinylated anti-PD-1 antibody
Type: cell-based, human
Experimental: Donor blood was obtained in the form of human peripheral blood through standard leukapheresis or blood draw protocols. The red blood cells were removed from the donor blood by centrifugation protocols known in the art. Briefly, the peripheral blood was centrifuged, the supernatant discarded, the pellet was resuspended in ammonium chloride potassium (ACK) buffer, the ACK pellet suspension was incubated at room temperature, and the cells were washed twice in wash buffer to produce a cell pellet.
Enrichment of the PD-1 expressing cells was then performed. The washed cell pellet was resuspended in wash buffer and cell count determined. Wash buffer was added to bring the cell density to 100×10^6 cells per mL. 1 μg/mL MEDI3097 antibody was added to the cells to produce an antibody-cell mixture comprising cells and MEDI3097 antibody. The antibody mixture was incubated at 4° C. for 15 minutes and then centrifuged and washed twice with wash buffer. Wash buffer was added to bring cell density to 125×10^6 cells per mL. Anti-biotin beads were then added to the cells at a concentration of 2 mL beads per 1 billion cells to produce a bead mixture. […]
Enrichment of PD-1 expressing T cells was performed after red blood cells were removed from leukapheresis products. The washed cell pellet was resuspended in wash buffer and cell count determined. […]

B1: LO115: anti-PD-1 antibody (antibody)
heavy: EVQLVESGGGLVQPGGSLRLSCAASGFTFSDYGMHWVRQAPGKGLEWVAYISSGSYTIYSADSVKGRFTISRDNAKNSLYLQMNSLRAEDTAVYYCARRAPNSFYEYYFDYWGQGTTVTVSSASTKGPSVFPLAPSSKSTSGGTAALGCLVKDYFPEPVTVSWNSGALTSGVHTFPAVLQSSGLYSLSSVVTVPSSSLGTQTYICNVNHKPSNTKVDKRVEPKSCDKTHTCPPCPAPEFEGGPSVFLFPPKPKDTLMISRTPEVTCVVVDVSHEDPEVKFNWYVDGVEVHNAKTKPREEQYNSTYRVVSVLTVLHQDWLNGKEYKCKVSNKALPASIEKTISKAKGQPREPQVCTLPPSREEMTKNQVSLSCAVKGFYPSDIAVEWESNGQPENNYKTTPPVLDSDGSFFLVSKLTVDKSRWQQGNVFSCSVMHEALHNHYTQKSLSLSPGK
light: QIVLTQSPATLSLSPGERATLSCSASSKHTNLYWSRHMYWYQQKPGQAPRLLIYLTSNRATGIPARFSGSGSGTDFTLTISSLEPEDFAVYYCQQWSSNPFTFGQGTKLEIKRTVAAPSVFIFPPSDEQLKSGTASVVCLLNNFYPREAKVQWKVDNALQSGNSQESVTEQDSKDSTYSLSSTLTLSKADYEKHK
PD-1 expression of selected T cells versus biotinylated antibody concentration (concentration adjusted (0.5 μg/mL to 0.05 μg/mL)): expression of PD-1 high T cells increases as the concentration of the biotinylated antibody decreases

B2: MEDI0680: anti-PD-1 antibody (antibody, V domains shown)
VH: EVQLVESGGGLVQPGGSLRLSCAASGFTFSDYGMHWVRQAPGKGLEWVAYISSGSYTIYSADSVKGRFTISRDNAKNTLYLQMSSLRAEDTAVYYCARRGYGSFYEYYFDYWGQGTTVTVSS
VL: QIVLTQSPATLSLSPGERATLSCSASSSVSYMYWYQQKPGQAPRLLIYLTSNRATGIPARFSGSGSGTDYSSTLTISSLEPEDFAVYYCQQWSSNPFTFGQGTKLEIK
PD-1 expression level of isolated cells versus ratio of biotinylated to unmodified antibody (total anti-PD-1 antibody concentration constant): the PD-1 expression level of isolated cells increased as the ratio of unmodified anti-PD-1 antibody increased
